{
  "source": "paper doi:10.1101/2022.01.04.474980",
  "binders": {"B1": {"name": "FRQ-interacting RNA Helicase (FRH), endogenous in N. crassa (protein, UniProt Q1K502 1-1106)", "chain": "MDDLFEVFEEQPRAQKKRKASPDVEMADGAAAAAPVANAAAAVTHPQAQAAPAPQKDNIDNNDNNNNNTTTSAVQPTIPNGDAAAAADDVQSPQSPHGLGDNKRRKKTDEAEPIMTDAFQTAESREVTGAQGFAPTEGESIVLSHNIQHQVALPPDLDYEYIPLSEHKPPAEPARTYSFKLDPFQALSVASIEREESVLVSAHTSAGKTVVAEYAIAQCLKKNQRVIYTSPIKALSNQKYRDFQAEFGDVGLMTGDVTINPTASCLVMTTEILRSMLYRGSEIMREVAWVVFDEIHYMRDKIRGVVWEETIILLPDKVRYVFLSATIPNAFQFAEWIAKIHRQACHVVYTDFRPTPLQNYFFPAGGKGILLIVDEKGNFKENNFNQAMAMIEEKKGTDSNDWSAKQKGKGKNKKTNKGGEAADEKADIAKIIKMILKKNFQPVIVFNFSKRECEQMALASSSMKFNAPDEENMVNKVFENALASLSEDDKNLPQISNILPLLRKGIGVHHSGLLPILKETIEILFQEGLIKVLFATETFSIGLNMPARTVVFTQVTKWDGQQRRPLTSSEYIQMAGRAGRRGLDDRGIVIMMVDDKLEPETARAIVVGNQDKLNSAFHLGYNMVLNLLRIEAISPEYMLERCFFQFQNAASVPQLERELISLQQERDAIIIPDESIVKDYYGVRQQLEEYNKDMVFVIQHPQNCLGFFQEGRLIHIKSPSGVDYGWGVLIKHIQRQTPKNGQPPYPEQESYVLDVLLKVSGDFNPKTRGEGPMPEGIMPAGKDSKNARWEVVPCLLNCLRALGQLRVFLPKRLESADEKDGVGKAVDEISRRFPDGIPILDPMENMGINDDSFKKLLRKIEVLESRLVANPLHNSPLLVELWNQYSLKMQLGEQIKEKKKAIARAHSVAQLDELKSRKRVLRRLGFINDAEVVQMKARVACEISSTEGHELLLAELLFNRFFNELSPEICACILSCFIFDEKIETQALKEELAKPFREIQAQARIIAKVSAESKLDVNEDEYVQSLKWQLMETVLAWAQGRPFSEICKMTNVYEGSLIRLFRRLEELLRQMAEAARVMGSEELKDKFELSLSKIRRDIVSFNSLYL"}},
  "experiment_in_all_cases": "co-IP",
  "key": {"[1]": {"molecular_target": "T1, FRQ^RR/AA (RR783AA), VHF-tagged (N. crassa) (UniProt P19970)", "T1 sequence": "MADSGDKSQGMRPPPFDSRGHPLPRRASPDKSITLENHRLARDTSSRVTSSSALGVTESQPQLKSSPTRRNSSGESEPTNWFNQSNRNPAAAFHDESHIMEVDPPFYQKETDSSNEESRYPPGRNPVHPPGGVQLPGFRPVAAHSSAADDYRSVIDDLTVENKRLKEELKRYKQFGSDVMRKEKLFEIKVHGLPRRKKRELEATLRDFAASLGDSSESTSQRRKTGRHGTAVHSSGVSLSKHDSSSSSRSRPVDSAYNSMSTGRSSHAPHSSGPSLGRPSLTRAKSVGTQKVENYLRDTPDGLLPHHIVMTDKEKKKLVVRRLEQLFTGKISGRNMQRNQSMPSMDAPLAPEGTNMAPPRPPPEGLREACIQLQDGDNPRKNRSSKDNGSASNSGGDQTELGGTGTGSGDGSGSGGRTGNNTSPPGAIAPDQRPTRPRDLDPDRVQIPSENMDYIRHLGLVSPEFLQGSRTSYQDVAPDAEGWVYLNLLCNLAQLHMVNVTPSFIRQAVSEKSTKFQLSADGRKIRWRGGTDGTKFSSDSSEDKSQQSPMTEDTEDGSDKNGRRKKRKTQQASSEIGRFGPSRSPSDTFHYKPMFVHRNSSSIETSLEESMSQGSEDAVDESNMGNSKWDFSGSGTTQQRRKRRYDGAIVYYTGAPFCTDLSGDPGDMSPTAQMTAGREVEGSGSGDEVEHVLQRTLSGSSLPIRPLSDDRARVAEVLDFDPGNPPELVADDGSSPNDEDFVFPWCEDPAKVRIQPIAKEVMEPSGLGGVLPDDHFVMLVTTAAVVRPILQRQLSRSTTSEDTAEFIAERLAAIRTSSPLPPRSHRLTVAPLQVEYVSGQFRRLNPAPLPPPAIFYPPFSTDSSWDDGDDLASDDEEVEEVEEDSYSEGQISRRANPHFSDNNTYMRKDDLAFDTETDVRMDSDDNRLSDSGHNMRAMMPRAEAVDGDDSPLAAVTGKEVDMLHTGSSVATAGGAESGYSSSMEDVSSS"}, "[2]": {"molecular_target": "T2, FRQ^RR/HH (RR783HH), VHF-tagged (N. crassa) (UniProt P19970)", "T2 sequence": "T1 sequence with A783H, A784H"}, "[3]": {"molecular_target": "T3, FRQ^VHF (VHF-tagged wild-type FREQUENCY) (N. crassa) (UniProt P19970)", "T3 sequence": "T1 sequence with A783R, A784R"}},
  "note": "Substitutions are numbered along the chain they refer to. No constants are given. Whether binding was seen depends on the method and setting. Binding seen in cells or lysates may run through a third protein. Some results given as binding are weak or reduced against the parent protein; the word gives no strength. Where a sequence is shown, tags or fusion partners need not be part of it.",
  "data": [
    {"binder": "B1", "values": [
      {"measurement": "binding", "setting": "[1]", "value": "no binding"},
      {"measurement": "binding", "setting": "[2]", "value": "binds"},
      {"measurement": "binding", "setting": "[3]", "value": "binds"}
    ]}
  ]
}
